Experimental data published in PMC8654949.
Results are given in words; binding and its absence hold for the method and conditions named. In cells and extracts the contact can be indirect. Some entries that bind do so weakly or less than the wild type. For some assays here: Sequences can lack the tags named with a protein. Blank lines part the entries; values can stand above or below the molecule they belong to.

Amino acid sequences for entries named in this document (tags omitted).
UniProt A6NHR9: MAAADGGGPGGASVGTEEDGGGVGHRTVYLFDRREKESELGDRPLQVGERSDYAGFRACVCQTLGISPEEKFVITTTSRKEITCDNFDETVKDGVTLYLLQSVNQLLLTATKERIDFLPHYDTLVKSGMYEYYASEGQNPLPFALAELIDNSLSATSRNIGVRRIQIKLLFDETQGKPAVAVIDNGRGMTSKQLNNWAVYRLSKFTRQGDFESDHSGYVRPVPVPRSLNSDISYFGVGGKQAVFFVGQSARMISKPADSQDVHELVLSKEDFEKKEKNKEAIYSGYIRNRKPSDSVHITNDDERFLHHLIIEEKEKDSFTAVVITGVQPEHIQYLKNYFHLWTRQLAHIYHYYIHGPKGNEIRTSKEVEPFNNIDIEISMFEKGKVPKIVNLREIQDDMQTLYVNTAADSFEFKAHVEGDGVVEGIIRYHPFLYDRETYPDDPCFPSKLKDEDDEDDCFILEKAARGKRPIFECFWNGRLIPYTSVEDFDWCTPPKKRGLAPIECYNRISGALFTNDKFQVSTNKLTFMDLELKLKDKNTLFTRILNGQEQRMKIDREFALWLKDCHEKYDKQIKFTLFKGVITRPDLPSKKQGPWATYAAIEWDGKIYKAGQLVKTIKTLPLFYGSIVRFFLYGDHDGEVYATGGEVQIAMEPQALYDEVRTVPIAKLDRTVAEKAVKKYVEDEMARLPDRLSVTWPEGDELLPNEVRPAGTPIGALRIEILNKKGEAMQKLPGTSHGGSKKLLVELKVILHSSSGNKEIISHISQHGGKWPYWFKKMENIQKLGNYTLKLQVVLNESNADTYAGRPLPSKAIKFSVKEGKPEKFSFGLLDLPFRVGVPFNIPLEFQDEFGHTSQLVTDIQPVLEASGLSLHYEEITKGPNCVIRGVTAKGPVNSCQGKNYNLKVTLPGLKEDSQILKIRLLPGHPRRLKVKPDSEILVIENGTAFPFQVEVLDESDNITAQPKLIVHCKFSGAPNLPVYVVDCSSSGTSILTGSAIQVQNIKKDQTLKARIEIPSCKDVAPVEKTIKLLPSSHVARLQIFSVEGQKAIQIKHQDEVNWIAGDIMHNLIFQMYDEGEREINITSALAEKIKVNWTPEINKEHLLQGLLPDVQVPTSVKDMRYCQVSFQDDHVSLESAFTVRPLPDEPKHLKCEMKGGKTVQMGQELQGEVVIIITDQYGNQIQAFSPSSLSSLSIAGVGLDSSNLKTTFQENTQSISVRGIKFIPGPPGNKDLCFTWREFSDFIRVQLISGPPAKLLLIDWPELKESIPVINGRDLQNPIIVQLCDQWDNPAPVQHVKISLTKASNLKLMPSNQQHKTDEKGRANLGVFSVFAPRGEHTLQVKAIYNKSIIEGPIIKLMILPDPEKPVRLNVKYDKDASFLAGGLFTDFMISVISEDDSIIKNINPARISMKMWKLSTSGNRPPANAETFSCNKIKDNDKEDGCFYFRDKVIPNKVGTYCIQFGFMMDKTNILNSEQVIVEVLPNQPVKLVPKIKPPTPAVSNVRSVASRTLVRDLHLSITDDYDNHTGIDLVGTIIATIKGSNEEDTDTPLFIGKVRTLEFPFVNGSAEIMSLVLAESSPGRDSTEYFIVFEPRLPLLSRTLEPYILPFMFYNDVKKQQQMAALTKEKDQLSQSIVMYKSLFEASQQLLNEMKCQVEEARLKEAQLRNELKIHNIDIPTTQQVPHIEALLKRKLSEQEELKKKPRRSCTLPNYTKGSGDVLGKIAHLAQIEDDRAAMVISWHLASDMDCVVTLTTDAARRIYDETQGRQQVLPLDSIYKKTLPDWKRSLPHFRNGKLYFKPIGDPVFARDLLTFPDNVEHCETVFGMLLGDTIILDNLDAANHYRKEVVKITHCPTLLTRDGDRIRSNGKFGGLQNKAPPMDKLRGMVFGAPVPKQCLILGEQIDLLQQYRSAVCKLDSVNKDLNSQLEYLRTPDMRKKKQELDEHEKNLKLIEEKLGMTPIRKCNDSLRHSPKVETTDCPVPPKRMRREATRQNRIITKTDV
UniProt Q9Y265: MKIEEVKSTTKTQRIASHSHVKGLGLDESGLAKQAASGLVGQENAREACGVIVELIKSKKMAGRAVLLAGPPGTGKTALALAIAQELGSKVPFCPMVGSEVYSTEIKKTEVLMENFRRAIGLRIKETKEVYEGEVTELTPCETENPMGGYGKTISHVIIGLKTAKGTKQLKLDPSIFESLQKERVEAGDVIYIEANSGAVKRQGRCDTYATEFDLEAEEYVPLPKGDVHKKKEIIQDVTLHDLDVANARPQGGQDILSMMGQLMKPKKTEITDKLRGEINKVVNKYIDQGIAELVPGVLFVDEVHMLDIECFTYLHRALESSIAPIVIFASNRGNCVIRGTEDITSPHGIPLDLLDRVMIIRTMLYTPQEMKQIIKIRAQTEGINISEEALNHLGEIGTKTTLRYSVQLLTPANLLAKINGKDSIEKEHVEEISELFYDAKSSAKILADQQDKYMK

Assays:
[1] = biological target: T1, HA-EZHIP (EZH Inhibitory Protein, CXorf67) (human) (UniProt Q86X51); assay: co-IP; overexpressed constructs in transfected HEK293T, U2OS or HeLa cells; NP40 lysis buffer (50 mM Tris-HCl pH 8.0, 150 mM NaCl, 1% Igepal CA-630); HA-beads, Flag M2 affinity gel or GFP-Trap agarose, 2 h at 4 °C; western blot; Benzonase at first, omitted later as it did not affect …
T1 sequence: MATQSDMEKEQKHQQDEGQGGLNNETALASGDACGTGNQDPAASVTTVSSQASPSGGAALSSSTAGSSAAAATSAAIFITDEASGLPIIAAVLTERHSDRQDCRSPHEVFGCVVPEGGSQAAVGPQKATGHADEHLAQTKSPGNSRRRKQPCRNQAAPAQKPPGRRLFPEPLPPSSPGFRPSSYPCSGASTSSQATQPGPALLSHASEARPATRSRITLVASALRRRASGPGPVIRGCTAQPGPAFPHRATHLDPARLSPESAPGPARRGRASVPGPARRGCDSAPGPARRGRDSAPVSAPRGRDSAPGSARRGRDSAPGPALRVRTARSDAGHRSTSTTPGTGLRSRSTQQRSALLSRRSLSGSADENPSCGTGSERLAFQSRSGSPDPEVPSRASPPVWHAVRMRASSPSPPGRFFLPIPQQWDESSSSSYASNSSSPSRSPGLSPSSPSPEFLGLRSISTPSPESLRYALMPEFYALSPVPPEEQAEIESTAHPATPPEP

[2] = biological target: GFP-SMCHD1 (GFP-tagged Structural Maintenance of Chromosomes Hinge Domain Containing 1) (human) (UniProt A6NHR9); assay: co-IP; GFP-pulldown of GFP-SMCHD1 from stable GFP-SMCHD1 U2OS cells; western blot for the endogenous partner
[3] = biological target: GFP-SMCHD1 (GFP-tagged Structural Maintenance of Chromosomes Hinge Domain Containing 1) (human) (UniProt A6NHR9); assay: co-IP; overexpressed constructs in transfected HEK293T, U2OS or HeLa cells; NP40 lysis buffer (50 mM Tris-HCl pH 8.0, 150 mM NaCl, 1% Igepal CA-630); HA-beads, Flag M2 affinity gel or GFP-Trap agarose, 2 h at 4 °C; western blot; Benzonase at first, omitted later as it did not affect …
[4] = biological target: 3xHA-SMCHD1 (human) (UniProt A6NHR9); assay: as above
[5] = biological target: T2, endogenous EZHIP (HEK293T and HeLa cells) (human (endogenous in HEK293T, HeLa)) (UniProt Q86X51); assay: co-IP; endogenous proteins; antibody (1 µg) conjugated to Dynabeads protein A and protein G (3:1); lysates of HEK293T, U2OS, HeLa cells or control myoblasts; western blot
T2 sequence: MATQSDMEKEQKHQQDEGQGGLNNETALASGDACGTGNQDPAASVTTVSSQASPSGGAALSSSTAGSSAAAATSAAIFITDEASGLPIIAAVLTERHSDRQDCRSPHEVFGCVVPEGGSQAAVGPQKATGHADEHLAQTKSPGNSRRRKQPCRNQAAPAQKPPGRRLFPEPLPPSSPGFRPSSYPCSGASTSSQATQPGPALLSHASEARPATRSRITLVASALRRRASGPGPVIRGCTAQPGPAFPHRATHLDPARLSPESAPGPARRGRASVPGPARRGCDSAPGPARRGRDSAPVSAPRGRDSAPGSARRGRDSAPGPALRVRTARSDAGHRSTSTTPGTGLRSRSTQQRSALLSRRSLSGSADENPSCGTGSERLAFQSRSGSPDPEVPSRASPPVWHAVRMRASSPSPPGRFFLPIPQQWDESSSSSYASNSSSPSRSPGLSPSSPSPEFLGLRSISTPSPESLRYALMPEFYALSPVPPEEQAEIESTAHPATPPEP

[6] = biological target: RuvB Like AAA ATPase 1 (RUVBL1), endogenous (human (endogenous in HEK293T, U2OS, HeLa, myoblasts)) (UniProt Q9Y265); assay: as above
[7] = biological target: GFP-SMCHD1 (GFP-tagged Structural Maintenance of Chromosomes Hinge Domain Containing 1) (human) (UniProt A6NHR9); assay: co-IP; overexpressed constructs in transfected HEK293T, U2OS or HeLa cells; NP40 lysis buffer (50 mM Tris-HCl pH 8.0, 150 mM NaCl, 1% Igepal CA-630); HA-beads, Flag M2 affinity gel or GFP-Trap agarose, 2 h at 4 °C; western blot; Benzonase at first, omitted later as it did not affect …; remark: listed apart in the source
[8] = biological target: 3xFLAG-SMCHD1 (human) (UniProt A6NHR9); assay: as above

B1: RAD21 (cohesin complex component) (protein, UniProt O60216 1-631)
chain: MFYAHFVLSKRGPLAKIWLAAHWDKKLTKAHVFECNLESSVESIISPKVKMALRTSGHLLLGVVRIYHRKAKYLLADCNEAFIKIKMAFRPGVVDLPEENREAAYNAITLPEEFHDFDQPLPDLDDIDVAQQFSLNQSRVEEITMREEVGNISILQENDFGDFGMDDREIMREGSAFEDDDMLVSTTTSNLLLESEQSTSNLNEKINHLEYEDQYKDDNFGEGNDGGILDDKLISNNDGGIFDDPPALSEAGVMLPEQPAHDDMDEDDNVSMGGPDSPDSVDPVEPMPTMTDQTTLVPNEEEAFALEPIDITVKETKAKRKRKLIVDSVKELDSKTIRAQLSDYSDIVTTLDLAPPTKKLMMWKETGGVEKLFSLPAQPLWNNRLLKLFTRCLTPLVPEDLRKRRKGGEADNLDEFLKEFENPEVPREDQQQQHQQRDVIDEPIIEEPSRLQESVMEASRTNIDESAMPPPPPQGVKRKAGQIDPEPVMPPQQVEQMEIPPVELPPEEPPNICQLIPELELLPEKEKEKEKEKEDDEEEEDEDASGGDQDQEERRWNKRTQQMLHGLQRALAKTGAESISLLELCRNTNRKQAAAKFYSFLVLKKQQAIELTQEEPYSDIIATPGPRFHII
- binding [7]: binds

B2: HA-EZHIP (EZH Inhibitory Protein, CXorf67) (protein, UniProt Q86X51 1-503)
chain: MATQSDMEKEQKHQQDEGQGGLNNETALASGDACGTGNQDPAASVTTVSSQASPSGGAALSSSTAGSSAAAATSAAIFITDEASGLPIIAAVLTERHSDRQDCRSPHEVFGCVVPEGGSQAAVGPQKATGHADEHLAQTKSPGNSRRRKQPCRNQAAPAQKPPGRRLFPEPLPPSSPGFRPSSYPCSGASTSSQATQPGPALLSHASEARPATRSRITLVASALRRRASGPGPVIRGCTAQPGPAFPHRATHLDPARLSPESAPGPARRGRASVPGPARRGCDSAPGPARRGRDSAPVSAPRGRDSAPGSARRGRDSAPGPALRVRTARSDAGHRSTSTTPGTGLRSRSTQQRSALLSRRSLSGSADENPSCGTGSERLAFQSRSGSPDPEVPSRASPPVWHAVRMRASSPSPPGRFFLPIPQQWDESSSSSYASNSSSPSRSPGLSPSSPSPEFLGLRSISTPSPESLRYALMPEFYALSPVPPEEQAEIESTAHPATPPEP
- binding [8]: binds

Further lines, results first:

- binding [1]: binds
Molecule: 3xFLAG-SMCHD1 (from UniProt A6NHR9 1-2005)

- binding [2]: binds
- binding [3]: binds
- binding [4]: binds
Molecule: RuvB Like AAA ATPase 1 (RUVBL1), endogenous (from UniProt Q9Y265 1-456)

- binding [5]: binds
- binding [6]: binds
Molecule: endogenous SMCHD1 (from UniProt A6NHR9 1-2005)
